According to the supplement of paper PMC10849652:
The list shows a part of the results. Residues, ends and D or L forms follow the SMILES beside them. *: point of attachment. Cbz = O=C(OCc1ccccc1)*

The chains behind the UniProt entries cited, without tags or fusion partners. Where a name states a change or a piece, a line headed by the entry shows the natural chain unless it says otherwise.
UniProt Q96DT7: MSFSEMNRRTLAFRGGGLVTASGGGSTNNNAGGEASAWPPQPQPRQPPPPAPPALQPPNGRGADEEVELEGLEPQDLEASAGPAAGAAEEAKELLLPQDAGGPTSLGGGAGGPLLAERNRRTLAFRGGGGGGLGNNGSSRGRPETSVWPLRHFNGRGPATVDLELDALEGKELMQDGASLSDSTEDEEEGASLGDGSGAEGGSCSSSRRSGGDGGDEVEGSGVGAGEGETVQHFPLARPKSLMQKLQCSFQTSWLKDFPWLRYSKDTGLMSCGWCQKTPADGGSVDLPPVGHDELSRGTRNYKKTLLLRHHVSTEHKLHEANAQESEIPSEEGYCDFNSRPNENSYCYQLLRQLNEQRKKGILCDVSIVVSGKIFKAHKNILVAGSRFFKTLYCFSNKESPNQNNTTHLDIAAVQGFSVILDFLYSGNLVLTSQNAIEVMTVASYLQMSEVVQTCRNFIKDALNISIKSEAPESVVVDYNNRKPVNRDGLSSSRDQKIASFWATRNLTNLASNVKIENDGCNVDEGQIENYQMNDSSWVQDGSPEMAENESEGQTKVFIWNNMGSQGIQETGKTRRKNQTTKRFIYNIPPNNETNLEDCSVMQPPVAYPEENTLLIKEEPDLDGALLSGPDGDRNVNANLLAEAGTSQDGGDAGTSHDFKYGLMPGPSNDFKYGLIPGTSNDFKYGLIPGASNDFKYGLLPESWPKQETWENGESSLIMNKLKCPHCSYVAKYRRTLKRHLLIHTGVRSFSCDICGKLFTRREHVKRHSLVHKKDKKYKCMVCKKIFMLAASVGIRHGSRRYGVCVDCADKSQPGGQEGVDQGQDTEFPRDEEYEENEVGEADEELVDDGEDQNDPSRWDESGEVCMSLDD
UniProt Q9BQ24: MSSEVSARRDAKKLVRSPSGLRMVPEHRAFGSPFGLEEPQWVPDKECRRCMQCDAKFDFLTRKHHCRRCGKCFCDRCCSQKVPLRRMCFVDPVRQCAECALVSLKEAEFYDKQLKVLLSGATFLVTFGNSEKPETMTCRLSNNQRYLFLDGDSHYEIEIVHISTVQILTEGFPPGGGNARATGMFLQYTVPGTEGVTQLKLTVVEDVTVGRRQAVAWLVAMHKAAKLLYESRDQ
UniProt Q9H8U3: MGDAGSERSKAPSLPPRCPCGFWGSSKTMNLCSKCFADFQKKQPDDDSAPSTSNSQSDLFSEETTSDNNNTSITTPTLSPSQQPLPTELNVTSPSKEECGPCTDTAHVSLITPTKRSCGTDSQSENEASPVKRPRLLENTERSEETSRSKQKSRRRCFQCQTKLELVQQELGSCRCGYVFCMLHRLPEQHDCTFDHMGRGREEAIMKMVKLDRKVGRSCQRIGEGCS
UniProt O43670: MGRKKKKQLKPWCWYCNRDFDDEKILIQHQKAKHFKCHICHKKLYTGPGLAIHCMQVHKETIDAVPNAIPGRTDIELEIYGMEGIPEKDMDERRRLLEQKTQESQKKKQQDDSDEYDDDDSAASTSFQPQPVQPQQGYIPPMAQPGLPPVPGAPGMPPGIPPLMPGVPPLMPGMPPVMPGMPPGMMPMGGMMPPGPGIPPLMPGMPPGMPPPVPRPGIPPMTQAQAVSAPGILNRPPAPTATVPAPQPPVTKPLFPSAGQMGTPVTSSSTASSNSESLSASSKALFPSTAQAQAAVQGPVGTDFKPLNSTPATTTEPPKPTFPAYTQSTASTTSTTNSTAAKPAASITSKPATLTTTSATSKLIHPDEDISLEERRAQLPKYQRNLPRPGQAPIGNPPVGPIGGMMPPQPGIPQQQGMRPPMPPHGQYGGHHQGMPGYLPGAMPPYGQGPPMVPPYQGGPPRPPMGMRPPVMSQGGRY
UniProt Q5T750: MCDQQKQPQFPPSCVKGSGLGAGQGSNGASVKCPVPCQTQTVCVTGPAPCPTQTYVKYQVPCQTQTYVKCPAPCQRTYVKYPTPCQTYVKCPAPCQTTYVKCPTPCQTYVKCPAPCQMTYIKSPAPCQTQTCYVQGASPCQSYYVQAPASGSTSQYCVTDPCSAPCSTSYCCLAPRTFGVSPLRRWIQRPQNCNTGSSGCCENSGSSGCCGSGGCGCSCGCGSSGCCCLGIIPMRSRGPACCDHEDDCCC
UniProt O60293: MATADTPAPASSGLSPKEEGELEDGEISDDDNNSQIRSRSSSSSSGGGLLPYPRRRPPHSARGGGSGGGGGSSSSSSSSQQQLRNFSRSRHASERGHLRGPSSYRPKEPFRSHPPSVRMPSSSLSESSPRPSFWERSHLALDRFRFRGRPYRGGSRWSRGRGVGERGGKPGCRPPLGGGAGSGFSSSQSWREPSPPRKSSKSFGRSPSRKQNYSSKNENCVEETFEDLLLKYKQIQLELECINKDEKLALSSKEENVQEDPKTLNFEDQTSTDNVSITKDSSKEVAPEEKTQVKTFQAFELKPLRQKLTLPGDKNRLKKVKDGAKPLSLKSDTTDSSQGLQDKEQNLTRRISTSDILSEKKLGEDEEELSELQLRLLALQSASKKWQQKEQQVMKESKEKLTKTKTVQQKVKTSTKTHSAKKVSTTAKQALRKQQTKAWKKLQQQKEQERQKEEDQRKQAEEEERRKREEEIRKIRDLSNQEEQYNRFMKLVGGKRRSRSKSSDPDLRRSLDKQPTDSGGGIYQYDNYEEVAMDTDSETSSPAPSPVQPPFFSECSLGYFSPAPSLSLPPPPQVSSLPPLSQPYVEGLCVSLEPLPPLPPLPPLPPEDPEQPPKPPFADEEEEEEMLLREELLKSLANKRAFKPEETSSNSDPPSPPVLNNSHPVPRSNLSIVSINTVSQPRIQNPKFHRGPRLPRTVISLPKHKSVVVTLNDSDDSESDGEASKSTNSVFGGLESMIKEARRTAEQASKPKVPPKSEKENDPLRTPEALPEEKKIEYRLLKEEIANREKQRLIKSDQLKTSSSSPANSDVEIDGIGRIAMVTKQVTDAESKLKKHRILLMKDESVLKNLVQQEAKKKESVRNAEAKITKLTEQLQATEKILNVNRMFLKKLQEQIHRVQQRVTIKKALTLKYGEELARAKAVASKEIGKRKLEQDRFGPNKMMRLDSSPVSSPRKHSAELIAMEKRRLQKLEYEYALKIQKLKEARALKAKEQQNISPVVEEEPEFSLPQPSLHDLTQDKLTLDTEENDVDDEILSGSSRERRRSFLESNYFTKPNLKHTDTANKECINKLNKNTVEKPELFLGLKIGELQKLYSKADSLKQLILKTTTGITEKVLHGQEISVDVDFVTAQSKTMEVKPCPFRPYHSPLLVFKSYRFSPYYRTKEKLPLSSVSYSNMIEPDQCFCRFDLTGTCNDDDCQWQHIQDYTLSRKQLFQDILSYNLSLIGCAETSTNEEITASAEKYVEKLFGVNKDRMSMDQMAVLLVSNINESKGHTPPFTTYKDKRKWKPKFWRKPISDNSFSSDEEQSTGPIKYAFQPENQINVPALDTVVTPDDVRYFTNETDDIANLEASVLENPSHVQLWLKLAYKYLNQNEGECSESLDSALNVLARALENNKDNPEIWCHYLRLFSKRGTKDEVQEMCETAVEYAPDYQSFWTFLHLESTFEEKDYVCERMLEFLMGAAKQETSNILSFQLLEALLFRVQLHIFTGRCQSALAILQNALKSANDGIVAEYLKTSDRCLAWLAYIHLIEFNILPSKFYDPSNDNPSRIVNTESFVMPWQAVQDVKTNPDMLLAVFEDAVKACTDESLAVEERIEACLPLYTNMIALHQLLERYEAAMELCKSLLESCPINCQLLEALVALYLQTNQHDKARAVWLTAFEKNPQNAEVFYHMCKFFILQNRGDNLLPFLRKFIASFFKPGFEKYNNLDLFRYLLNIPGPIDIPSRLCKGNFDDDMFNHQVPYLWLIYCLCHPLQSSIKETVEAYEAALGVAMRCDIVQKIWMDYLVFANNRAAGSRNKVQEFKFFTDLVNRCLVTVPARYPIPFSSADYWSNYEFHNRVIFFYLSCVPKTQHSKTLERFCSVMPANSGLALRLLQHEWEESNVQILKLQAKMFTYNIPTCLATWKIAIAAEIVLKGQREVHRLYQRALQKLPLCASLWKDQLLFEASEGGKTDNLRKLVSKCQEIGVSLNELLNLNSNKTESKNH
UniProt P23025: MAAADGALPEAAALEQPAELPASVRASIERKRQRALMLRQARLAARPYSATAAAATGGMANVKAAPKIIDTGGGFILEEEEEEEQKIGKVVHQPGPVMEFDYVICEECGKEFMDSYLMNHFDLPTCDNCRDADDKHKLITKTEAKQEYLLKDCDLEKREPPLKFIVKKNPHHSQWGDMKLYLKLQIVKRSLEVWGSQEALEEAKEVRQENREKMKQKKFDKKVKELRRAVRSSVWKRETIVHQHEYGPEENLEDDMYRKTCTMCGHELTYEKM
UniProt Q8IUH4: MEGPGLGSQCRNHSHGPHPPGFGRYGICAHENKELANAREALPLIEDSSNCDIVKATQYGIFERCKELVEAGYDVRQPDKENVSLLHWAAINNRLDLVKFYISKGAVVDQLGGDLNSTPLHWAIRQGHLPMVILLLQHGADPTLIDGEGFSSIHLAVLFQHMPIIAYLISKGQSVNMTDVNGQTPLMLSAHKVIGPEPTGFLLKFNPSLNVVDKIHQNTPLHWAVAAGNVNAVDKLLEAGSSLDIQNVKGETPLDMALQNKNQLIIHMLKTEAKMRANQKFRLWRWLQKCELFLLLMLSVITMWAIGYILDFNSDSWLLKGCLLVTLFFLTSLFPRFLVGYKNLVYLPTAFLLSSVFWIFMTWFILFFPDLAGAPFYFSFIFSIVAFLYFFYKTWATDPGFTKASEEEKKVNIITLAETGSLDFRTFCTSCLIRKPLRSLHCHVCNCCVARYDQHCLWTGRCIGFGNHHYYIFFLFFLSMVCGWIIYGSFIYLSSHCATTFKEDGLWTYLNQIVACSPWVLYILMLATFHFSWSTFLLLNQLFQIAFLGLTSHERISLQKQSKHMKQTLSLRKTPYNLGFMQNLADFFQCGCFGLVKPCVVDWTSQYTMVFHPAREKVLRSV
UniProt P58557: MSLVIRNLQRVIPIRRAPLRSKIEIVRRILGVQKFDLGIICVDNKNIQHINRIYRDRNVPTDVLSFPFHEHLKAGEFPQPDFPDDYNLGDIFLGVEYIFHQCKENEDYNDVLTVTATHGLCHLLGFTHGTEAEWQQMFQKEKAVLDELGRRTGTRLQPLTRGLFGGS
UniProt P17026: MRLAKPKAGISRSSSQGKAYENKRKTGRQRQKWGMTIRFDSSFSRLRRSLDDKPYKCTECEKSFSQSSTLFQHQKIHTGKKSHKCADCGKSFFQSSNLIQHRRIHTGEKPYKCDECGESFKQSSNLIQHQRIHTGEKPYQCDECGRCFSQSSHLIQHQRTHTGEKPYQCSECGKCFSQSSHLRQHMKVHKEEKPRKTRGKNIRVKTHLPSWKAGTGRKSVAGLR
UniProt O43829: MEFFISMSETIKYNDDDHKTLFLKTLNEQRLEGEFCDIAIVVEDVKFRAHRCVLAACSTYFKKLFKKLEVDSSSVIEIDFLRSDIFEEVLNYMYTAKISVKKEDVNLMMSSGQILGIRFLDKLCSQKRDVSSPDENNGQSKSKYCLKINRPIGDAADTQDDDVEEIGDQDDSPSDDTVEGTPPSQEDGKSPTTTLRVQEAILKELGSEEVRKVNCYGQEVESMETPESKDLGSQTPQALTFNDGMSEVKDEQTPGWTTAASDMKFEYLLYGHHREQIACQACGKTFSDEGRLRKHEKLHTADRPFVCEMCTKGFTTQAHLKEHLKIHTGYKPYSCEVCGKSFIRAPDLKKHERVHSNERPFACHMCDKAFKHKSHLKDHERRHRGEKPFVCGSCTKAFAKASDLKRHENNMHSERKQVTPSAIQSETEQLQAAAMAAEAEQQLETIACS
UniProt Q9BWQ6: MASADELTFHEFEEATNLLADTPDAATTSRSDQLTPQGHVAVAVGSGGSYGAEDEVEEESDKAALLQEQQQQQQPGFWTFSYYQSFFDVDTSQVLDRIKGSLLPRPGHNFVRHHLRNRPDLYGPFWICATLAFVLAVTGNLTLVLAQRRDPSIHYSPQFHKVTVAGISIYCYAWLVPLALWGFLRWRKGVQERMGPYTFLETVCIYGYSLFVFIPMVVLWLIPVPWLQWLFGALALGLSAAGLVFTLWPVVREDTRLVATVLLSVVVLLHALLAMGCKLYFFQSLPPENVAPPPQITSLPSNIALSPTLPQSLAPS
UniProt Q9H6R6: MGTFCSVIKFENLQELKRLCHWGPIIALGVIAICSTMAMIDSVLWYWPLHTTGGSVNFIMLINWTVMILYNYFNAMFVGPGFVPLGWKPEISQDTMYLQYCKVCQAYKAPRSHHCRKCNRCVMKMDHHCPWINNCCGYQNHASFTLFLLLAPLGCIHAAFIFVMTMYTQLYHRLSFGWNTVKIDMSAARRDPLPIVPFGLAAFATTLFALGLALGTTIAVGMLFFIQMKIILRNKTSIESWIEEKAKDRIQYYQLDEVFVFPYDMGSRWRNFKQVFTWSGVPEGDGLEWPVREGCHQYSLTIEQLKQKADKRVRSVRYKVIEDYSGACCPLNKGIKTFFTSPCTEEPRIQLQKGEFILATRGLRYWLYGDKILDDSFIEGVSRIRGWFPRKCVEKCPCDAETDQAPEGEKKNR

Each target was assayed with CC(=O)c1cnc2ccc(-c3cc(Cl)c(O)c(Cl)c3)nc2c1N[C@H]1CC[C@H](CN(C)C)CC1 (assay: log2 fold change, soluble protein after heating vs DMSO (PISA); higher = thermal stabilisation; K562 cells, 10 uM, 30 min; active = over 0.2 and 3.5 SD of the protein, either way, in both replicates (recomputed)).
Summary of the method: (§1)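 Soluble protein was defined as the supernatant after 21,000xg for 90 min. It came from K562 cells at 2×10^6 cells/mL given 10 μM compound for 30 min, heated in aliquots for 3 min across 48°C-58°C, pooled, and extracted in PBS with 0.5% NP-40 at 4°C, and was quantified by TMTpro 16plex LC-MS/MS with equalised channel sums. Thermal stability against control samples, from duplicates, is reported as log2 fold change.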
For ZKSCAN4 (UniProt Q969J2), the log2 fold change was inactive: -0.014. In the case of ZFPM2 (UniProt Q8WW38), the log2 fold change is reported as inactive: -0.028. With ZNF225 (UniProt Q9UK10) the log2 fold change was inactive: 0.08. In the case of ZBTB10 (UniProt Q96DT7), the log2 fold change is reported as inactive: -0.119. For ZFYVE21 isoform 2 (UniProt Q9BQ24), the log2 fold change was inactive: -0.02. In the case of ZFAND3 (UniProt Q9H8U3), the log2 fold change is reported as inactive: 0.025. ZBTB24 (UniProt O43167) was tested, and the log2 fold change was inactive: 0.094. For ZNF207 isoform 2 (UniProt O43670), the log2 fold change was inactive: -0.164. With XP32 (UniProt Q5T750) the log2 fold change was inactive: -0.433. With ZFC3H1 (UniProt O60293) the log2 fold change was inactive: 0.038. XIRP2 isoform 8 (UniProt A4UGR9) was tested, and the log2 fold change was inactive: 0.038. ZBTB44 (UniProt Q8NCP5) was tested, and the log2 fold change was inactive: -0.181. With ZG16B (UniProt Q96DA0) the log2 fold change was inactive: -0.644. With ZBED1 (UniProt O96006) the log2 fold change was inactive: -0.047. With XPA (UniProt P23025) the log2 fold change was inactive: -0.156. In the case of ZDHHC13 (UniProt Q8IUH4), the log2 fold change is reported as inactive: -0.249. For ZBTB34 (UniProt Q8NCN2), the log2 fold change was inactive: 0.284.

These targets were tested with CC(C)(C)Cn1c(N)nc2ccc(-c3[nH]c(C(C)(C)C)nc3-c3ccc(F)cc3)nc21 [ralimetinib] in the same assay as above.
Summary of the method: as §1
ZKSCAN4 (UniProt Q969J2) was tested, and the log2 fold change was inactive: 0.002. In the case of ZDHHC9 (UniProt Q9Y397), the log2 fold change is reported as inactive: 0.058. YBEY (UniProt P58557) was tested, and the log2 fold change was inactive: 0.001. With ZFYVE21 isoform 2 (UniProt Q9BQ24) the log2 fold change was inactive: 0. For ZNF22 (UniProt P17026), the log2 fold change was inactive: 0.189. For ZKSCAN8 (UniProt Q15776), the log2 fold change was inactive: 0.091. For ZFPM1 (UniProt Q8IX07), the log2 fold change was inactive: 0.23. With ZFAND3 (UniProt Q9H8U3) the log2 fold change was inactive: -0.036. For ZBTB24 (UniProt O43167), the log2 fold change was inactive: 0.317. With ZNF207 isoform 2 (UniProt O43670) the log2 fold change was inactive: -0.049. For XP32 (UniProt Q5T750), the log2 fold change was inactive: -0.049. ZFC3H1 (UniProt O60293) was tested, and the log2 fold change was inactive: 0.04. ZBTB14 (UniProt O43829) was tested, and the log2 fold change was inactive: 0.04. In the case of YIPF2 (UniProt Q9BWQ6), the log2 fold change is reported as inactive: -0.105. For XPA (UniProt P23025), the log2 fold change was inactive: -0.118. ZC3H7B (UniProt Q9UGR2) was tested, and the log2 fold change was inactive: 0.267. For ZDHHC13 (UniProt Q8IUH4), the log2 fold change was inactive: 0.035.

What follows are targets tested with CC(C)(O)CC(=O)NCCn1ccc2ncnc(Nc3ccc(Oc4cccc(C(F)(F)F)c4)c(Cl)c3)c21 in the same assay as above.
Summary of the method: as §1
ZBTB10 (UniProt Q96DT7) was tested, and the log2 fold change was inactive: -0.027. In the case of XYLB (UniProt O75191), the log2 fold change is reported as inactive: -0.031. With ZKSCAN8 (UniProt Q15776) the log2 fold change was inactive: -0.001. ZFPM1 (UniProt Q8IX07) was tested, and the log2 fold change was inactive: 0. With ZFAND3 (UniProt Q9H8U3) the log2 fold change was inactive: 0. For XYLT2 (UniProt Q9H1B5), the log2 fold change was inactive: -0.046. In the case of ZDHHC6 (UniProt Q9H6R6), the log2 fold change is reported as active: -0.932. ZBTB24 (UniProt O43167) was tested, and the log2 fold change was inactive: 0.027. With ZNF207 isoform 2 (UniProt O43670) the log2 fold change was inactive: 0.005. YIPF2 (UniProt Q9BWQ6) was tested, and the log2 fold change was inactive: 0.17. In the case of ZBED1 (UniProt O96006), the log2 fold change is reported as inactive: -0.218. In the case of XPA (UniProt P23025), the log2 fold change is reported as inactive: -0.154. In the case of ZDHHC13 (UniProt Q8IUH4), the log2 fold change is reported as inactive: 0.061. For XRCC2 (UniProt O43543), the log2 fold change was inactive: -0.07.

What follows are targets tested with CC(C)C1=C2N=C(C=C(N2N=C1)NCC3=CC=CC=C3)NCCCCCCN in the same assay as above.
Summary of the method: as §1
With ZBTB10 (UniProt Q96DT7) the log2 fold change was inactive: -0.026. In the case of ZBTB17 isoform 2 (UniProt Q13105), the log2 fold change is reported as inactive: 0.054. For ZDHHC16 (UniProt Q969W1), the log2 fold change was inactive: -0.033. In the case of YIPF1 (UniProt Q9Y548), the log2 fold change is reported as inactive: -0.027. In the case of YBEY (UniProt P58557), the log2 fold change is reported as inactive: -0.042. XYLB (UniProt O75191) was tested, and the log2 fold change was inactive: -0.14. ZCRB1 (UniProt Q8TBF4) was tested, and the log2 fold change was inactive: 0.138. With ZFHX4 isoform 5 (UniProt Q86UP3) the log2 fold change was inactive: -0.1. In the case of ZFYVE21 isoform 2 (UniProt Q9BQ24), the log2 fold change is reported as inactive: -0.114. ZNF22 (UniProt P17026) was tested, and the log2 fold change was inactive: -0.012. For ZFPM1 (UniProt Q8IX07), the log2 fold change was inactive: 0.039. In the case of ZFAND3 (UniProt Q9H8U3), the log2 fold change is reported as inactive: 0.071. With ZBTB24 (UniProt O43167) the log2 fold change was inactive: 0.038. ZNF207 isoform 2 (UniProt O43670) was tested, and the log2 fold change was inactive: -0.071. With ZFP36L2 (UniProt P47974) the log2 fold change was inactive: 0.041. For ZBTB14 (UniProt O43829), the log2 fold change was inactive: 0.1. XIRP2 isoform 8 (UniProt A4UGR9) was tested, and the log2 fold change was inactive: -0.114. In the case of ZDHHC13 (UniProt Q8IUH4), the log2 fold change is reported as inactive: -0.138. With XRCC2 (UniProt O43543) the log2 fold change was inactive: 0.009.

Each target was assayed with CC(C)C[C@@H](C=O)NC(=O)[C@H](CC(C)C)NC(=O)[C@H](CC(C)C)NC(=O)OCc1ccccc1 in the same assay as above.
Summary of the method: as §1
For ZKSCAN4 (UniProt Q969J2), the log2 fold change was inactive: -0.191. With ZDHHC9 (UniProt Q9Y397) the log2 fold change was inactive: 0.099. For YBEY (UniProt P58557), the log2 fold change was inactive: 0.098. In the case of ZFYVE21 isoform 2 (UniProt Q9BQ24), the log2 fold change is reported as inactive: 0.089. For ZNF22 (UniProt P17026), the log2 fold change was inactive: 0.071. ZKSCAN8 (UniProt Q15776) was tested, and the log2 fold change was inactive: 0.191. With ZFPM1 (UniProt Q8IX07) the log2 fold change was inactive: -0.16. In the case of ZFAND3 (UniProt Q9H8U3), the log2 fold change is reported as inactive: 0.104. ZBTB24 (UniProt O43167) was tested, and the log2 fold change was inactive: 0.17. For ZNF207 isoform 2 (UniProt O43670), the log2 fold change was inactive: 0.003. For XP32 (UniProt Q5T750), the log2 fold change was inactive: -0.235. ZFC3H1 (UniProt O60293) was tested, and the log2 fold change was inactive: -0.012. In the case of ZBTB14 (UniProt O43829), the log2 fold change is reported as inactive: -0.039. YIPF2 (UniProt Q9BWQ6) was tested, and the log2 fold change was inactive: 0.071. XPA (UniProt P23025) was tested, and the log2 fold change was inactive: 0.154. With ZC3H7B (UniProt Q9UGR2) the log2 fold change was inactive: 0.342. For ZDHHC13 (UniProt Q8IUH4), the log2 fold change was inactive: 0.014.
